US20190202925A1
These are yes or no findings as the source states them, for the method shown. Some binding calls cover weakened binding; strength is not graded here.

Sequences of proteins named here, by UniProt entry; tags and fusion partners are left off. Residues count along the entry.
UniProt P20333, residues 23-257: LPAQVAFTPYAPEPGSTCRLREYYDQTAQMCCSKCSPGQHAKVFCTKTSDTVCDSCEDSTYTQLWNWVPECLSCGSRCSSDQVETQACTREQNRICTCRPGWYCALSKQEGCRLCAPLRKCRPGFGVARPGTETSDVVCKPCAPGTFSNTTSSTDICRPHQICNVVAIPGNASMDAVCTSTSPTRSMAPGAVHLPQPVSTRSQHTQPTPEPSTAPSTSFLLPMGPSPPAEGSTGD

Assays:
[1] = target: monomeric cynomolgus TNFR2 extracellular domain (cynomolgus monkey); experiment: BLI (Octet Red 96), antibody on anti-mouse Fc biosensor, monomeric TNFR2 ECD in solution
[2] = target: monomeric cynomolgus TNFR2 extracellular domain (cynomolgus monkey); experiment: BLI (Octet Red 96), antibody captured on Fc biosensor, monomeric TNFR2 ECD in solution
[3] = target: monomeric human TNFR2 extracellular domain (human) (UniProt P20333); experiment: BLI (Octet Red 96), antibody on anti-mouse Fc biosensor, monomeric TNFR2 ECD in solution
[4] = target: monomeric human TNFR2 extracellular domain (human) (UniProt P20333); experiment: BLI (Octet Red 96), CHO supernatant antibody on anti-human Fc biosensor, 100 nM monomeric human TNFR2 ECD

binding [2] | binding [4] | Binder | other results
binds |  | chimeric SBT-001 (antibody, V domains shown) VH: EVQLQQSGAELVKPGASVKISCKASGYTFTDYNMDWVKQSHGKSLEWIGDINPNYESTSYNQKFKGKATLTVDKSSSTAYMEVRSLTSEDTAVFYCARDKGWYFDVWGAGTTVTVSS VL: ENVLTQSPAIMSASLGEKVTMSCRASSSVKNMYWYQQKSDASPKLWIYYTSNLAPGVPARFSGSGSGNSYSLTISSMEGEDAATYYCQQFTSSPYTFGGGTKLELK | 
binds |  | chimeric SBT-004 (antibody, V domains shown) VH: EVQLQQSGPEVGRPGSSVKISCKASGYTFTDYIMHWVKQSPGQGLEWIGWVDPEYGSTDYAEKFKKKATLTADTSSNTAYIQLSSLTSEDTATYFCARDDGSYSPFDYWGQGVMVTVSS VL: DIQMTQSPPSLSASLGDKVTITCQASQNINKYIAWYQQKPGKAPRLLIRYTSTLESGTPSRFSGSGSGRDYSFSISNVESEDIASYYCLQYVNLLTFGAGTKLEIK | 
 | binds | hSBT-002a (antibody, V domains shown) VH: QVTLKESGPALVKPTQTLTLTCTFSGFSLSTSGMGVGWIRQPPGKALEWLAHIWWDDDKFYNPSLKSRLTISKDTSKNQVVLTMTNMDPVDTATYYCARITGTRYFDYWGQGTTVTVSS VL: DIQMTQSPSSLSASVGDRVTITCKASQDINKFIAWYQQKPGKAPKLLIYYTSTLQPGVPSRFSGSGSGTDFTFTISSLQPEDIATYYCLQYGNLWTFGGGTKVEIK | 
 | binds | hSBT-002d (antibody, V domains shown) VH: QVTLKESGPALVKPTQTLTLTCTFSGFSLSTSGMGVGWIRQPPGKALEWLAHIWWDDDKFYNPSLKSQLTISKDTSKNQVVLTMTNMDPVDTATYYCARITGTRYFDYWGQGTTVTVSS VL: DVQMTQSPSSLSASVGDRVTITCKASQDINKFIAWYQQKPGKAPKLLIHYTSTLQPGIPSRFSGSGSGRDYTFTISSLQPEDIATYYCLQYGNLWTFGGGTKVEIK | 
 | binds | hSBT-002b (antibody, V domains shown) VH: QVTLKESGPALVKPTQTLTLTCTFSGFSLSTSGMGVGWIRQPPGKALEWLAHIWWDDDKFYNPSLKSQLTISKDTSKNQVVLTMTNMDPVDTATYYCARITGTRYFDYWGQGTTVTVSS VL: DVQMTQSPSSLSASVGDRVTITCKASQDINKFIAWYQQKPGKAPKLLIHYTSTLQPGIPSRFSGSGSGTDFTFTISSLQPEDIATYYCLQYGNLWTFGGGTKVEIK | 

Second part, the binder before the results:

Binder | binding [2] | binding [4] | other results
SBT-001 (antibody, V domains shown) VH: EVQLQQSGAELVKPGASVKISCKASGYTFTDYNMDWVKQSHGKSLEWIGDINPNYESTSYNQKFKGKATLTVDKSSSTAYMEVRSLTSEDTAVFYCARDKGWYFDVWGAGTTVTVSS VL: ENVLTQSPAIMSASLGEKVTMSCRASSSVKNMYWYQQKSDASPKLWIYYTSNLAPGVPARFSGSGSGNSYSLTISSMEGEDAATYYCQQFTSSPYTFGGGTKLELK |  |  | binding [1]: binds
SBT-004 (antibody, V domains shown) VH: EVQLQQSGPEVGRPGSSVKISCKASGYTFTDYIMHWVKQSPGQGLEWIGWVDPEYGSTDYAEKFKKKATLTADTSSNTAYIQLSSLTSEDTATYFCARDDGSYSPFDYWGQGVMVTVSS VL: DIQMTQSPPSLSASLGDKVTITCQASQNINKYIAWYQQKPGKAPRLLIRYTSTLESGTPSRFSGSGSGRDYSFSISNVESEDIASYYCLQYVNLLTFGAGTKLEIK |  |  | binding [3]: binds; binding [1]: binds
hSBT-002e (antibody, V domains shown) VH: QVTLKESGPALVKPTQTLTLTCTFSGFSLSTSGMGVGWIRQPPGKALEWLAHIWWDDDKFYNPSLKSRLTISKDTSKNQVVLTMTNMDPVDTATYYCARLTGTRYFDYWGQGTTVTVSS VL: DVQMTQSPSSLSASVGDRVTITCKASQDINKFIAWYQQKPGKAPKLLIHYTSTLQPGIPSRFSGSGSGRDYTFTISSLQPEDIATYYCLQYGNLWTFGGGTKVEIK |  | binds | 
hSBT-002c (antibody, V domains shown) VH: QVTLKESGPALVKPTQTLTLTCTFSGFSLSTSGMGVGWIRQPPGKALEWLAHIWWDDDKFYNPSLKSRLTISKDTSKNQVVLTMTNMDPVDTATYYCARLTGTRYFDYWGQGTTVTVSS VL: DVQMTQSPSSLSASVGDRVTITCKASQDINKFIAWYQQKPGKAPKLLIHYTSTLQPGIPSRFSGSGSGTDFTFTISSLQPEDIATYYCLQYGNLWTFGGGTKVEIK |  | binds | 
chimeric SBT-002 (antibody, V domains shown) VH: QVTLKESGPGILQPSQTLSLTCSFSGFSLSTSGMGVGWIRQPSGKGLEWLAHIWWDDDKFYNPSLKSQLTISKDTSRNQVFLKLTSVVTADTATYYCARLTGTRYFDYWGQGTTLTVSS VL: DVQMTQSPSSLSASLGGKVTITCKASQDINKFIAWYQHKPGKGPRLLIHYTSTLQPGIPSKFSGSGSGRDYSFSISNLEPEDIATYYCLQYGNLWTFGGGTKLEIT | binds |  | 
chimeric SBT-003 (antibody, V domains shown) VH: QIQLVQSGPELKKPGETVKISCKASGYTFTDYSMHWVKQAPGKGLKWMGWINTETGEPTYADDFKGRFAFSSETSTSTAYLQINNLKNDDTTTYFCATYYGSSYVPDYWGQGTSLTVSS VL: DIVMTQSHKFMSTSVGDRVSITCKASQNVGTAVAWYQHKPGQSPKLLIYWTSSRHTGVPDRFTGSGSGTEFTLTISNVQSEDLADYFCHQYSDYPYTFGGGTKLEIK | binds |  | 
